Measured values: patent USRE35224E (The Board of Trustees of the Leland Stanford Junior …, priority 1993, dated 1996)
Counter-ions that a name gives are not always drawn. Like-named read-outs stand apart in the source and are kept apart here. Some results were stated once for a whole list of compounds, not compound by compound.

Amino acid sequences for entries named in this document (tags omitted).
UniProt P47747, whole entry: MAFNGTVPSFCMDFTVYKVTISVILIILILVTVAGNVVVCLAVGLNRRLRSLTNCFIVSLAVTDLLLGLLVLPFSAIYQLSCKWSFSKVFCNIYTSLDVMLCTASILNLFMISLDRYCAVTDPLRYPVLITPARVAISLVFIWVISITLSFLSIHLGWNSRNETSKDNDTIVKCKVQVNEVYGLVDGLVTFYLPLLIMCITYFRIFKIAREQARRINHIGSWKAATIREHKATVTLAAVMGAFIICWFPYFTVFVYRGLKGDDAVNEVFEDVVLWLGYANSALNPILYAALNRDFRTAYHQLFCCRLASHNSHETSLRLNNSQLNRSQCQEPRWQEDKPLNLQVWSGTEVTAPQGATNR

Biological target: T1, guinea pig myocardial adenylate cyclase (Cavia porcellus, UniProt P47747)
T1 construct: histamine-stimulated adenylate cyclase with GPP(NH)P
Experiment: Guinea pig myocardial adenylate cyclase assay
Format: biochemical
Experimental: Male, partly albino, guinea pigs (600 g average weight) were killed by a blow to the head. The hearts were excised and immediately immersed in ice cold oxygenated Tyrode's solution. Both ventricles were dissected free and placed in 250 mM sucrose, 5 mM Tris, 1 mM EDTA, pH 7.45. The tissue was minced with a screen, and was then homogenized with 3 consecutive 5 sec bursts of a Polytron (Brinkman Instruments, Inc., Westbury, NY) at a setting of 11. The homogenate was then centrifuged at 1085×g for 20 min. The pellet was resuspended and recentrifuged twice. The final suspension was filtered through four layers of gauze. Adenylate cyclase was assayed by the method of Salomon et al., Anal. Biochem. (1974) 58:541 as modified by Bristow et al., Mol Pharmacol. (1982) 21:671. Enzyme protein (75-250 μg) was added to a reaction mixture that consisted of 0.1 mM Mg ATP, 0.5 mM MgCl2, 10 mM phosphocreatine, 14.5 μg of creatine kinase (1381 U/mg), 100 mM
The final reaction volume before addition of α-^32 P!ATP was 225 μl. Reaction tubes were stored in cryogenic racks (Kryorack, Isolab, Inc. Akron, OH) at 0° C.
The reaction mixture was pre-warmed in a shaking water bath at 30° C. for 5 min after which 25 μl ([…]) of α-^32 P!ATP (250-500 Ci/mM) was added to label the ATP pool. The assay time was 20 min, the time needed for measurable stimulation of adenylate cyclase. The ^32 P reaction was stopped by the addition of 750 μl of 1% sodium dodecysulfate. ^32 P-labelled cyclic AMP was then isolated by the dual Dowex-alumina column method of Salomon et al., supra. α-^32 P!ATP (New England Nuclear Corporation, Boston, MA) that gave reagent blanks of 50 cpm was purified on Dowex columns as described by Salomon et al., supra.

In the case of `Cc1ccc(NC(=O)CCCCNCCc2c[nH]cn2)cc1` [Compound 5, 5-2'-(4"-Imidazo)ethylamino!pentanoic Acid p-Toluide, Dihydrochloride], the “Activity on guinea pig myocardium (in words)” value (from here on “Activity”) (listed as compound 5, Dihydrochloride) is reported as “histamine-like activity on the myocardium”.

In the case of `Cc1ccc(NC(=O)CCCC(C)NCCc2c[nH]cn2)cc1` (stereo not shown) [Compound 6], the “Activity” value (listed as compound 6) is reported as “histamine-like activity on the myocardium”.

With `Cc1ccc(NC(=O)CCCCC(C)NCCc2c[nH]cn2)cc1` (stereo not shown) [Compound 7, 6-2'-(4"-Imidazolyl)ethylamino!heptanoic Acid p-Toluide] the “Activity” value was “histamine-like activity on the myocardium”.

With `Cc1ccc(NC(=O)CCCCCC(C)NCCc2c[nH]cn2)cc1` (stereo not shown) [Compound 8] the “Activity” value (listed as compound 8) was “histamine-like activity on the myocardium”.
